Measured values from paper PMC1896016.

Molecular target: T1, HCF-Flag (Drosophila), overexpressed in transgenic embryos (Drosophila) (UniProt Q9V4C8)
T1 sequence: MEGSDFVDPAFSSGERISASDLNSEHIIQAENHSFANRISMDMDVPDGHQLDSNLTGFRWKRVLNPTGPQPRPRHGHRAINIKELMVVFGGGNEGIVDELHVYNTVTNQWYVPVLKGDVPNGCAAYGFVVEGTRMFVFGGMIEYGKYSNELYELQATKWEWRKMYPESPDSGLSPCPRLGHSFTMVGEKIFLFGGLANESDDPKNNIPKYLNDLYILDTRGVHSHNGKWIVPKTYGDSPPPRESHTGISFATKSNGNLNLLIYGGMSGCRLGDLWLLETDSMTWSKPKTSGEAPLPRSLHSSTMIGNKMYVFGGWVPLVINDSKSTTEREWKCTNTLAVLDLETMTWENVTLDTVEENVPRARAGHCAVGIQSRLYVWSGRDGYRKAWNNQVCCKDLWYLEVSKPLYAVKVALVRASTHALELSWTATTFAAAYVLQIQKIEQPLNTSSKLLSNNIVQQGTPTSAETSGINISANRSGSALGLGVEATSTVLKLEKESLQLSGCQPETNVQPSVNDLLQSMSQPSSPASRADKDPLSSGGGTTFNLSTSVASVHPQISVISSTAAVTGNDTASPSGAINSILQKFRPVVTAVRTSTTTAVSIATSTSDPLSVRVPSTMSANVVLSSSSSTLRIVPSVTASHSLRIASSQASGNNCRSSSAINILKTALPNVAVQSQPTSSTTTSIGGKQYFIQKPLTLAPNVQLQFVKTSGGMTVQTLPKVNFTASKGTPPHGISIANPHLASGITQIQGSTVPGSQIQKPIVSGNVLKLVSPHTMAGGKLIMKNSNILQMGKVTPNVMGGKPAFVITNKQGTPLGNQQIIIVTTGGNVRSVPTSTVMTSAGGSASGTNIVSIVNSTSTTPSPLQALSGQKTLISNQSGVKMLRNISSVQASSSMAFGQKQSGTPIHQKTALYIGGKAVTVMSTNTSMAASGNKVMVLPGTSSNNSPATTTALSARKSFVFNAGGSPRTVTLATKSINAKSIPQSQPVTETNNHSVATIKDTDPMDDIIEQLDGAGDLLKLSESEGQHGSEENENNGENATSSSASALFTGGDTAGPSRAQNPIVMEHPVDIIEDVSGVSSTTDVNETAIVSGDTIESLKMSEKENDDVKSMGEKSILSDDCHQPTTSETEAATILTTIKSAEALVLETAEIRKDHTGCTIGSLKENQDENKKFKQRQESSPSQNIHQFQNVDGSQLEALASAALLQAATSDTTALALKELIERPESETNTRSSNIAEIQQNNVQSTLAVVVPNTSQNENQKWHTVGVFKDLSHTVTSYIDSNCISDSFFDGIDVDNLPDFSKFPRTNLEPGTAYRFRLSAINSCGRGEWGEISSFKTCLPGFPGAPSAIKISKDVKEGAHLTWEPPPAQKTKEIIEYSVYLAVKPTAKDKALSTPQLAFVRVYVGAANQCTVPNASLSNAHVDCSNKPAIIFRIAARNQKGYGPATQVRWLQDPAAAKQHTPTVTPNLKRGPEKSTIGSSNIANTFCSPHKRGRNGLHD
Test: co-IP; extract of 0-16 h transgenic embryos overexpressing HCF-Flag (da-Gal4); anti-Flag M2 beads; 50 mM Tris pH 8, 200 mM NaCl, 5 mM EDTA, 0.5% NP40; wt embryos as negative control

Substance: Sin3A, endogenous in Drosophila embryos
- binding: binds weakly

Results are given in words; binding and its absence hold for the method and conditions named. Binding seen in cells or lysates may run through a third protein. Binding can be weak; no strength is given. Sequences can lack the tags named with a protein.
